The results in this text go back to publication PMC5628335.

Protein sequences, listed by entry. Tags and fused reporters are not part of them. Residues count along the entry.
UniProt Q13308, 31-1070: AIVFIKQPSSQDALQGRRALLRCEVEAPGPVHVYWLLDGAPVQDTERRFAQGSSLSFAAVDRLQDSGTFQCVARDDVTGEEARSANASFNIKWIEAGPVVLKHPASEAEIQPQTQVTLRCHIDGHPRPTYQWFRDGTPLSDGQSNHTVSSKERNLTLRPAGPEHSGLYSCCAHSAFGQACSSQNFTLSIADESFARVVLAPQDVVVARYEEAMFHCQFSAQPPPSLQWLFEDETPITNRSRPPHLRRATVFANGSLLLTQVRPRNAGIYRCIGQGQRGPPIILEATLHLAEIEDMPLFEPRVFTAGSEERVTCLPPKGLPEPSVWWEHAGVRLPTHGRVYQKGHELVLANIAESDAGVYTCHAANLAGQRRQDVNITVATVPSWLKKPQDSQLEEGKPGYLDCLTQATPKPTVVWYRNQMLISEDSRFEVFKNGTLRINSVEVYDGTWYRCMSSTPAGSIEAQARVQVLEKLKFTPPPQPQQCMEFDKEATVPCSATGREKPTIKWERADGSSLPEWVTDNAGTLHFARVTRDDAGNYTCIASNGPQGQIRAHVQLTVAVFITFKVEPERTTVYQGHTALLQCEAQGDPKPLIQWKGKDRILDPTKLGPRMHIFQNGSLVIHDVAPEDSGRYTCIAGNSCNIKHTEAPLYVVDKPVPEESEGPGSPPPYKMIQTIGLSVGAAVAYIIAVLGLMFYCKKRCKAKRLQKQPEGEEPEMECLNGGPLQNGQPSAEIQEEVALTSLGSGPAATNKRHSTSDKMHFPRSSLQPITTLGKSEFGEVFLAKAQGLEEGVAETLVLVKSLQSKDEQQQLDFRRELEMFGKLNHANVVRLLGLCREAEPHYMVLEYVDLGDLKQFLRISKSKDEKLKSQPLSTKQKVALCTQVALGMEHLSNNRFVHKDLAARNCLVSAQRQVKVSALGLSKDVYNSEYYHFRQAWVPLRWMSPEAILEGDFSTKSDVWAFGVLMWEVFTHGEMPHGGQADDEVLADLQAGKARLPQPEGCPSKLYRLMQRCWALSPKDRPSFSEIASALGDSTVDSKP

Series [1] concerns the target PTK7 (membrane protein on CEM and HeLa cells) (UniProt Q13308). In words: confocal microscopy of cells. Particulars: protein on the cell surface, label: 3' TAMRA, single-stranded DNA.
Series [2] shares this target. Description: flow cytometry. The following applies: flow cytometry: 10^6 cells/mL in 200 uL binding buffer (composition not given), 4 °C, 30 min, 3 washes, protein on the cell surface, label: 3' TAMRA, single-stranded DNA.

For at least one entry, the source does not settle the construct or the ends of the probe. Results from cells or extracts need not show a direct contact. For some of these results: A negative result means that nothing was seen under these conditions. At least one verdict was read from the data and is not stated in words by the source.

In the case of “TTTTTTTTTTTTTTTTTTTT [UCNP-T20 (HS-T20-TAMRA on nanoparticle)]”, the binding result in series [1] (negligible fluorescence, 5' thiol linked by thiol-ene to acrylated UCNP) is “no binding”.
Take “TTTTTTTTTTATCTAACTGCTGCGCCGCCGGGAAAATACTGTACGGTTAGA [Sgc8 aptamer (HS-Aptamer-TAMRA), free]”: the binding result in series [2] (CEM cells, Ramos (less PTK7) as negative control, 5' thiol) is reported as “binds”.
As for “TTTTTTTTTTATCTAACTGCTGCGCCGCCGGGAAAATACTGTACGGTTAGA [UCNP-S-Sgc8 (aptamer on upconversion nanoparticle)]”, the binding result is “binds” in series [1] (25 ug/mL UCNP-Sgc8, 5' thiol linked by thiol-ene to acrylated UCNP) and “binds” in series [2] (CEM cells: obvious shift, Ramos (less PTK7): negligible shift, 5' thiol linked by thiol-ene to acrylated UCNP).
